This note sets out measurements from patent EP0076973A1, “A new dioxolanic compound and its method of preparation; a new dioxolanic amine with pharmacological activity, its method of preparation, and the pharmaceutical compositions containing them” (Investigacion Tecnica y Aplicada, S.A., priority 1981, dated 1983).

The nature of series [1]: Acute toxicity (LD50, method of Litchfield and Wilcoxon) in the rat. The following applies: in vivo, ip, intraperitoneal administration, read-out: LD50 and confidence limits. The method, then:
(§1) The respective lethal dose 50 was calculated according to the method of Litchfield and Wilcoxon (Jl. Pharmacol. Exptl. 96 99, 1949 ).

The subject of another series is male NMRI mouse. Briefly: Anti-arrythmic activity: fibrillation by chloroform in the mouse. Format: in vivo. From the text:
Tables 5 and 6 show the anti-arrithmic activity of the ITA 362 in the male NMRI mouse by oral and intraperitoneal route using the fibrillation test by chloroform in the mouse. […] The activity of the two forms of maleate described in the example 2 were studied and which in the table are subtitled as isomer A corresponding to the first fraction obtained in the aforementioned example, and isomer B corresponding to the second fraction.

Series [2] can be described thus: Acute toxicity (LD50, method of Litchfield and Wilcoxon) in the mouse. The note with it: in vivo. The method, then: as §1

A word on the LD50: it is the dose at which mortality reaches 50%. As a reminder, the ED50 is the dose at which the effect has come halfway, by size or by number of responders. Take `CCCCc1oc2ccccc2c1C(=O)c1cc(I)c(OCCN(CC)CC)c(I)c1` [Amiodarona, reference compound]: the LD50 was 885 mg/kg in series [1]; 940 mg/kg in series [2] (ip, intraperitoneal administration, read-out: LD50 and confidence limits); > 4000 mg/kg in series [2] (oral administration, read-out: LD50). Moreover, the ED50 in the series on male NMRI mouse (Mus musculus, ip, no unit given for ED50 (doses in mg/kg), read-out: ED50 and confidence limits p < 0,05) stood at 34 mg/kg. For the same compound, the “% protection versus fibrillation” value in the series on male NMRI mouse (i.p. 25 mg/kg) was 45%; in the series on male NMRI mouse (i.p. 50 mg/kg), 52,6%.
